Experimental data: PubChem BioAssay AID1259405 (NCATS, 2018)
This is one part, drawn at random, of about 50,000 reagents. About 4,000 of them (8%) count as active. 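Mouse siRNA library applied to hamster cells; one well for each siRNA.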

Test: 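Knock-downs that lift recombinant protein yield in hamster ovary cells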 (primary screen)
Cells: Chinese hamster CHO-K1 ovary cells with stable secreted eGFP expression
Reagent: single siRNA against mouse genes, 0.8 pmol siRNA per well (2 µl of 400 nM stock)
Timing: 3 days
Read-out: 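Percent of the per-plate non-targeting control median for intracellular GFP per well by laser scanning cytometry and for cell viability by ATP luminescence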
Scale: GFP, % of control: higher = more GFP per well, higher productivity; viability (ATP), % of control: higher = more viable cells (more ATP)
Call rule: 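a knock-down is called active if GFP reaches 120% or more of non-targeting control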

| target | PubChem SID | GFP, % of control | viability (ATP), % of control | outcome |
| --- | --- | --- | --- | --- |
| Cxcr4 (C-X-C motif chemokine receptor 4) | SID363544179 | 96.9 | 40.9 | inactive |
| Cxcr4 (C-X-C motif chemokine receptor 4) | SID363550507 | 73.9 | 67.2 | inactive |
| Cxcr4 (C-X-C motif chemokine receptor 4) | SID363557056 | 74.4 | 117 | inactive |
| Dmtf1 (cyclin D binding myb like transcription factor 1) | SID363573368 | 99.9 | 110 | inactive |
| Dmtf1 (cyclin D binding myb like transcription factor 1) | SID363588607 | 69.3 | 71.1 | inactive |
| Wdsub1 (WD repeat, SAM and U-box domain containing 1) | SID363543937 | 170 | 88.9 | active |
| Wdsub1 (WD repeat, SAM and U-box domain containing 1) | SID363551673 | 4.49 | 36.2 | inactive |
| Wdsub1 (WD repeat, SAM and U-box domain containing 1) | SID363559278 | 83.2 | 85.1 | inactive |
| Neil2 (nei like 2 (E. coli)) | SID363570187 | 83.5 | 101 | inactive |
| Neil2 (nei like 2 (E. coli)) | SID363576523 | 78.6 | 78.8 | inactive |
| Neil2 (nei like 2 (E. coli)) | SID363579691 | 63.4 | 69.1 | inactive |
| Vstm4 (V-set and transmembrane domain containing 4) | SID363539730 | 71 | 75.5 | inactive |
| Vstm4 (V-set and transmembrane domain containing 4) | SID363561031 | 67.8 | 58.8 | inactive |
| Vstm4 (V-set and transmembrane domain containing 4) | SID363565121 | 60.8 | 56.6 | inactive |
| Ssh1 (slingshot protein phosphatase 1) | SID363575068 | 76.4 | 82 | inactive |
| Ssh1 (slingshot protein phosphatase 1) | SID363580700 | 79.3 | 56.6 | inactive |
| Ssh1 (slingshot protein phosphatase 1) | SID363582812 | 68.8 | 49 | inactive |
| Nlrp3 (NLR family, pyrin domain containing 3) | SID363550065 | 110 | 96.2 | inactive |
| Nlrp3 (NLR family, pyrin domain containing 3) | SID363564574 | 70.3 | 72.4 | inactive |
| Nlrp3 (NLR family, pyrin domain containing 3) | SID363588119 | 72.5 | 68.9 | inactive |
| Ubtd2 (ubiquitin domain containing 2) | SID363542799 | 87.4 | 55.8 | inactive |
| Ubtd2 (ubiquitin domain containing 2) | SID363546316 | 56.7 | 60.2 | inactive |
| Ubtd2 (ubiquitin domain containing 2) | SID363548072 | 65.4 | 61.1 | inactive |
| Cyp26a1 (cytochrome P450, family 26, subfamily a, polypeptide 1) | SID363572998 | 49.6 | 59.6 | inactive |
| Cyp26a1 (cytochrome P450, family 26, subfamily a, polypeptide 1) | SID363577574 | 76.4 | 73.9 | inactive |
| Cyp26a1 (cytochrome P450, family 26, subfamily a, polypeptide 1) | SID363581094 | 127 | 69.1 | active |
| Kit (Kit proto-oncogene receptor tyrosine kinase) | SID363570885 | 81.9 | 62.5 | inactive |
| Klra19 (killer cell lectin-like receptor, subfamily A, member 19) | SID363540321 | 85.6 | 101 | inactive |
| Klra19 (killer cell lectin-like receptor, subfamily A, member 19) | SID363542073 | 101 | 73 | inactive |
| Klra19 (killer cell lectin-like receptor, subfamily A, member 19) | SID363566989 | 101 | 78.7 | inactive |
| Ube2d2a (ubiquitin-conjugating enzyme E2D 2A) | SID363572759 | 79.9 | 70.9 | inactive |
| Ube2d2a (ubiquitin-conjugating enzyme E2D 2A) | SID363578039 | 96 | 79.4 | inactive |
| Ube2d2a (ubiquitin-conjugating enzyme E2D 2A) | SID363582263 | 81.6 | 106 | inactive |
| Elmod3 (ELMO/CED-12 domain containing 3) | SID363541652 | 46.8 | 65.4 | inactive |
| Elmod3 (ELMO/CED-12 domain containing 3) | SID363553244 | 50.4 | 35.8 | inactive |
| Elmod3 (ELMO/CED-12 domain containing 3) | SID363566568 | 69.6 | 79.4 | inactive |
| Dmp1 (dentin matrix protein 1) | SID363539508 | 47.4 | 77.6 | inactive |
| Dmp1 (dentin matrix protein 1) | SID363560809 | 85.2 | 49.4 | inactive |
| Dmp1 (dentin matrix protein 1) | SID363564899 | 62.4 | 64.7 | inactive |
| Akap3 (A kinase anchor protein 3) | SID363573404 | 74.7 | 84.9 | inactive |
| Akap3 (A kinase anchor protein 3) | SID363588643 | 98.3 | 97.7 | inactive |
| Hsdl2 (hydroxysteroid dehydrogenase like 2) | SID363575094 | 56.2 | 59.3 | inactive |
| Hsdl2 (hydroxysteroid dehydrogenase like 2) | SID363580726 | 55 | 55.2 | inactive |
| Hsdl2 (hydroxysteroid dehydrogenase like 2) | SID363582838 | 91.3 | 84.9 | inactive |
| Clk1 (CDC-like kinase 1) | SID363547411 | 123 | 64.9 | active |
| Clk1 (CDC-like kinase 1) | SID363558180 | 111 | 60.3 | inactive |
| Clk1 (CDC-like kinase 1) | SID363559938 | 95.3 | 85.1 | inactive |

4 entries from above, sorted by “GFP, % of control”, ascending.
| target | PubChem SID | GFP, % of control | viability (ATP), % of control | outcome |
| --- | --- | --- | --- | --- |
| Dmtf1 (cyclin D binding myb like transcription factor 1) | SID363588607 | 69.3 | 71.1 | inactive |
| Cxcr4 (C-X-C motif chemokine receptor 4) | SID363557056 | 74.4 | 117 | inactive |
| Dmtf1 (cyclin D binding myb like transcription factor 1) | SID363573368 | 99.9 | 110 | inactive |
| Wdsub1 (WD repeat, SAM and U-box domain containing 1) | SID363543937 | 170 | 88.9 | active |

Next reagents:
| target | PubChem SID | GFP, % of control | viability (ATP), % of control | outcome |
| --- | --- | --- | --- | --- |
| Slc30a5 | SID363574904 | 57.6 | 77.2 | inactive |
| Slc30a5 | SID363575960 | 67 | 97.3 | inactive |
| Slc30a5 | SID363580536 | 93.7 | 114 | inactive |
| Mmp17 (matrix metallopeptidase 17) | SID363582408 | 90.5 | 103 | inactive |
| Mmp17 (matrix metallopeptidase 17) | SID363584168 | 93.9 | 63.6 | inactive |
| Il1r2 (interleukin 1 receptor, type II) | SID363568646 | 197 | 109 | active |
| Il1r2 (interleukin 1 receptor, type II) | SID363576038 | 74.7 | 80 | inactive |
| Il1r2 (interleukin 1 receptor, type II) | SID363578854 | 74.2 | 79.2 | inactive |
| Metap1d (methionyl aminopeptidase type 1D (mitochondrial)) | SID363574267 | 160 | 118 | active |
| Metap1d (methionyl aminopeptidase type 1D (mitochondrial)) | SID363575323 | 59.5 | 36.2 | inactive |
| Metap1d (methionyl aminopeptidase type 1D (mitochondrial)) | SID363579899 | 60.3 | 41.8 | inactive |
| Agtr2 (angiotensin II receptor, type 2) | SID363571108 | 88.1 | 70.5 | inactive |
| Agtr2 (angiotensin II receptor, type 2) | SID363571460 | 55.2 | 51.7 | inactive |
| Agtr2 (angiotensin II receptor, type 2) | SID363571812 | 66.9 | 56.5 | inactive |
| Sfrp2 (secreted frizzled-related protein 2) | SID363541594 | 102 | 79.8 | inactive |
| Sfrp2 (secreted frizzled-related protein 2) | SID363553186 | 56.4 | 59.7 | inactive |
| Sfrp2 (secreted frizzled-related protein 2) | SID363566510 | 77.2 | 68.4 | inactive |
| Pik3cd | SID363570893 | 92.2 | 68.1 | inactive |
| Pars2 (prolyl-tRNA synthetase (mitochondrial)(putative)) | SID363572755 | 94.5 | 73.2 | inactive |
| Pars2 (prolyl-tRNA synthetase (mitochondrial)(putative)) | SID363578035 | 118 | 115 | inactive |
| Pars2 (prolyl-tRNA synthetase (mitochondrial)(putative)) | SID363582259 | 72.6 | 105 | inactive |
| Mrgprd (MAS-related GPR, member D) | SID363571151 | 68.1 | 67.7 | inactive |
| Mrgprd (MAS-related GPR, member D) | SID363571503 | 89 | 85.3 | inactive |
| Mrgprd (MAS-related GPR, member D) | SID363571855 | 146 | 79 | active |
| B4galt7 (beta-1,4-galactosyltransferase 7) | SID363570657 | 108 | 56.6 | inactive |
| B4galt7 (beta-1,4-galactosyltransferase 7) | SID363579457 | 56.9 | 98.5 | inactive |
| B4galt7 (beta-1,4-galactosyltransferase 7) | SID363583329 | 82.1 | 103 | inactive |
| Yy1 (YY1 transcription factor) | SID363573810 | 75.8 | 83.1 | inactive |
| Yy1 (YY1 transcription factor) | SID363581554 | 44.5 | 56.5 | inactive |
| Yy1 (YY1 transcription factor) | SID363584018 | 44.8 | 63 | inactive |
| Lrrc4 (leucine rich repeat containing 4) | SID363544325 | 96.4 | 73.9 | inactive |
| Lrrc4 (leucine rich repeat containing 4) | SID363550653 | 72.1 | 57.1 | inactive |
| Lrrc4 (leucine rich repeat containing 4) | SID363557202 | 111 | 83.5 | inactive |
| Cyp11b2 (cytochrome P450, family 11, subfamily b, polypeptide 2) | SID363572975 | 59.2 | 56.7 | inactive |
| Cyp11b2 (cytochrome P450, family 11, subfamily b, polypeptide 2) | SID363577551 | 65.5 | 32.2 | inactive |
| Cyp11b2 (cytochrome P450, family 11, subfamily b, polypeptide 2) | SID363581071 | 69.4 | 77.3 | inactive |
| Cstf2 (cleavage stimulation factor, 3' pre-RNA subunit 2) | SID363569318 | 57.3 | 56.7 | inactive |
| Cstf2 (cleavage stimulation factor, 3' pre-RNA subunit 2) | SID363577062 | 104 | 82 | inactive |
| Cstf2 (cleavage stimulation factor, 3' pre-RNA subunit 2) | SID363578470 | 56.3 | 32.4 | inactive |
| Cetn3 (centrin 3) | SID363582659 | 78.4 | 85.7 | inactive |
| Cetn3 (centrin 3) | SID363584419 | 66.8 | 72.7 | inactive |
| F11r (F11 receptor) | SID363555223 | 84 | 85.6 | inactive |
| F11r (F11 receptor) | SID363563884 | 120 | 60.7 | active |
| F11r (F11 receptor) | SID363587430 | 81.8 | 87.4 | inactive |
| Or8b55 (olfactory receptor family 8 subfamily B member 55) | SID363554705 | 91.5 | 41.8 | inactive |
| Or8b55 (olfactory receptor family 8 subfamily B member 55) | SID363568152 | 57.5 | 57.9 | inactive |
| Or8b55 (olfactory receptor family 8 subfamily B member 55) | SID363586211 | 70.9 | 85.6 | inactive |
| Crygb (crystallin, gamma B) | SID363550164 | 86.1 | 82.6 | inactive |
| Crygb (crystallin, gamma B) | SID363564673 | 59.3 | 60.1 | inactive |
| Crygb (crystallin, gamma B) | SID363588218 | 131 | 134 | active |
| Kat5 (K(lysine) acetyltransferase 5) | SID363546102 | 74.3 | 98.6 | inactive |
| Kat5 (K(lysine) acetyltransferase 5) | SID363549615 | 63.6 | 95.1 | inactive |
| Kat5 (K(lysine) acetyltransferase 5) | SID363563421 | 77.4 | 51.9 | inactive |
| Lmnb1 (lamin B1) | SID363572371 | 65.1 | 75 | inactive |
| Lmnb1 (lamin B1) | SID363574131 | 89.3 | 104 | inactive |
| Rdh5 (retinol dehydrogenase 5) | SID363575256 | 82.9 | 83 | inactive |
| Rdh5 (retinol dehydrogenase 5) | SID363580888 | 52.4 | 41.2 | inactive |
| Rdh5 (retinol dehydrogenase 5) | SID363583000 | 110 | 88.5 | inactive |
| Serping1 (serine (or cysteine) peptidase inhibitor, clade G, member 1) | SID363573148 | 93.7 | 107 | inactive |
| Serping1 (serine (or cysteine) peptidase inhibitor, clade G, member 1) | SID363577724 | 105 | 89.9 | inactive |
| Serping1 (serine (or cysteine) peptidase inhibitor, clade G, member 1) | SID363581244 | 45.9 | 32.7 | inactive |
